Measured values as given in PMC11178898, “A clade of receptor-like cytoplasmic kinases and 14-3-3 proteins coordinate inositol hexaphosphate accumulation” (Nature Communications, 2024).
These are yes or no findings as the source states them, for the method shown. Binding calls can cover weak binding; strength is not graded here. Where a sequence is shown, tags or fusion partners need not be part of it. For some of these results: In cells and extracts the contact can be indirect. Values belong to the molecule of their own block, whether it stands above or below them.

What was measured:
[1] = target: T1, GRF4, Split-LUC fusion (Arabidopsis thaliana) (UniProt P46077); experiment: split reporter; Split-LUC; X-nLUC and X-cLUC constructs co-infiltrated into tobacco leaves, LUC activity with D-luciferin; in Figs. 5a, 6f, 7c with or without IPCK1
T1 sequence: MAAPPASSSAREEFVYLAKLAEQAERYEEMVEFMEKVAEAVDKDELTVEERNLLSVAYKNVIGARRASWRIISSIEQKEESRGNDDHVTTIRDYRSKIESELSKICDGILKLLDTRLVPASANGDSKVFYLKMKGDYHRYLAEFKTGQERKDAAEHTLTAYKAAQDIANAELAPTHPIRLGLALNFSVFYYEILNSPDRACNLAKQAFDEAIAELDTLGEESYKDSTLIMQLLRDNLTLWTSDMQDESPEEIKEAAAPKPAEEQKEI

[2] = target: IPCK1, BiFC fusion (Arabidopsis thaliana); experiment: split reporter; BiFC; constructs transiently expressed in Arabidopsis mesophyll protoplasts, confocal imaging
[3] = target: IPCK1-GST (Arabidopsis thaliana); experiment: pull-down; in vitro; GST- and HIS-tagged proteins from E. coli BL21 (DE3); bait on GST or Ni-NTA beads, incubated with the protein of the other tag on ice for 2 h, washed with PBS, blot with anti-HIS and anti-GST; both purified
[4] = target: IPCK1, Split-LUC fusion (Arabidopsis thaliana); experiment: split reporter; Split-LUC; X-nLUC and X-cLUC constructs co-infiltrated into tobacco leaves, LUC activity with D-luciferin; in Figs. 5a, 6f, 7c with or without IPCK1
[5] = target: IPCK1 N terminal (1-153 amino acids), BiFC fusion (Arabidopsis thaliana); experiment: split reporter; BiFC; constructs transiently expressed in Arabidopsis mesophyll protoplasts, confocal imaging
[6] = target: IPCK3, BiFC fusion (Arabidopsis thaliana); experiment: as above
[7] = target: IPCK2, BiFC fusion (Arabidopsis thaliana); experiment: as above
[8] = target: IPCK5, BiFC fusion (Arabidopsis thaliana); experiment: as above
[9] = target: IPCK6, BiFC fusion (Arabidopsis thaliana); experiment: as above
[10] = target: IPCK4, BiFC fusion (Arabidopsis thaliana); experiment: as above
[11] = target: IPCK1 N terminal (1-153 amino acids), Split-LUC fusion (Arabidopsis thaliana); experiment: split reporter; Split-LUC; X-nLUC and X-cLUC constructs co-infiltrated into tobacco leaves, LUC activity with D-luciferin; in Figs. 5a, 6f, 7c with or without IPCK1

binding [1]: binds
Molecule: IPK2β, Split-LUC fusion (Arabidopsis thaliana)

binding [2]: binds
B4: PI-PLC2, BiFC fusion (protein, UniProt Q39033 1-581)
chain: MSKQTYKVCFCFRRRFRYTASEAPREIKTIFEKYSENGVMTVDHLHRFLIDVQKQDKATREDAQSIINSASSLLHRNGLHLDAFFKYLFGDNNPPLALHKVHHDMDAPISHYFIFTGHNSYLTGNQLSSDCSEVPIIDALKKGVRVIELDIWPNSNKDDIDVLHGMTLTTPVGLIKCLKAIRAHAFDVSDYPVVVTLEDHLTPDLQSKVAEMVTEIFGEILFTPPVGESLKEFPSPNSLKRRIIISTKPPKEYKEGKDVEVVQKGKDLGDEEVWGREVPSFIQRNKSEAKDDLDGNDDDDDDDDEDKSKINAPPQYKHLIAIHAGKPKGGITECLKVDPDKVRRLSLSEEQLEKAAEKYAKQIVRFTQHNLLRIYPKGTRVTSSNYNPLVGWSHGAQMVAFNMQGYGRSLWLMQGMFRANGGCGYIKKPDLLLKSGSDSDIFDPKATLPVKTTLRVTVYMGEGWYFDFRHTHFDQYSPPDFYTRVGIAGVPGDTVMKKTKTLEDNWIPAWDEVFEFPLTVPELALLRLEVHEYDMSEKDDFGGQTCLPVWELSEGIRAFPLHSRKGEKYKSVKLLVKVEFV

binding [4]: binds
B5: PI-PLC2, Split-LUC fusion (protein, UniProt Q39033 1-581)
chain: MSKQTYKVCFCFRRRFRYTASEAPREIKTIFEKYSENGVMTVDHLHRFLIDVQKQDKATREDAQSIINSASSLLHRNGLHLDAFFKYLFGDNNPPLALHKVHHDMDAPISHYFIFTGHNSYLTGNQLSSDCSEVPIIDALKKGVRVIELDIWPNSNKDDIDVLHGMTLTTPVGLIKCLKAIRAHAFDVSDYPVVVTLEDHLTPDLQSKVAEMVTEIFGEILFTPPVGESLKEFPSPNSLKRRIIISTKPPKEYKEGKDVEVVQKGKDLGDEEVWGREVPSFIQRNKSEAKDDLDGNDDDDDDDDEDKSKINAPPQYKHLIAIHAGKPKGGITECLKVDPDKVRRLSLSEEQLEKAAEKYAKQIVRFTQHNLLRIYPKGTRVTSSNYNPLVGWSHGAQMVAFNMQGYGRSLWLMQGMFRANGGCGYIKKPDLLLKSGSDSDIFDPKATLPVKTTLRVTVYMGEGWYFDFRHTHFDQYSPPDFYTRVGIAGVPGDTVMKKTKTLEDNWIPAWDEVFEFPLTVPELALLRLEVHEYDMSEKDDFGGQTCLPVWELSEGIRAFPLHSRKGEKYKSVKLLVKVEFV

binding [3]: binds
B8: IPK1-HIS (enzyme, UniProt Q93YN9 1-451)
chain: MEMILEEKDASDWIYRGEGGANLVLAYAGSSPLFVGKVIRIQKARRNDKAIKNANGVVSVLTSDEQHLWRENNELISSPNKEVLEQRYVKNVIIPLLGPKHVDAGVRVSVSKEFLECVDKKVTKQRPLWRVNAANVDTSHDSALILNDHSLFSQGISSGGDCISVEIKPKCGFLPTSRFIGKENMLKTSVSRFKMHQLLKLEYNEISEESEYDPLDLFSGSKESVLEAIKALYSTPQNNFRVFLNGSLILGGSGESTGRTSPEIGYAFEDALKGFIQSEDGHRTECFLQLVSDAVYGSGVLDRLLEIQKLDKLDIEGAIHSYYDLINQPCPICKEGKPLEAELSLHALPLDESLKIVKEYLIAATAKDCSIMISFQSRNAWDSEPSGDYVSLKPTNQTFDYKVHFIDLSLKPLKRMESYYKLDKKIISFYNRKQKAENTAEQIGNSKPSHS

More lines, now with the values behind:

B1: GRF4, BiFC fusion (protein, UniProt P46077 1-267)
chain: MAAPPASSSAREEFVYLAKLAEQAERYEEMVEFMEKVAEAVDKDELTVEERNLLSVAYKNVIGARRASWRIISSIEQKEESRGNDDHVTTIRDYRSKIESELSKICDGILKLLDTRLVPASANGDSKVFYLKMKGDYHRYLAEFKTGQERKDAAEHTLTAYKAAQDIANAELAPTHPIRLGLALNFSVFYYEILNSPDRACNLAKQAFDEAIAELDTLGEESYKDSTLIMQLLRDNLTLWTSDMQDESPEEIKEAAAPKPAEEQKEI
binding [2]: binds

B2: GRF4-HIS (protein, UniProt P46077 1-267)
chain: MAAPPASSSAREEFVYLAKLAEQAERYEEMVEFMEKVAEAVDKDELTVEERNLLSVAYKNVIGARRASWRIISSIEQKEESRGNDDHVTTIRDYRSKIESELSKICDGILKLLDTRLVPASANGDSKVFYLKMKGDYHRYLAEFKTGQERKDAAEHTLTAYKAAQDIANAELAPTHPIRLGLALNFSVFYYEILNSPDRACNLAKQAFDEAIAELDTLGEESYKDSTLIMQLLRDNLTLWTSDMQDESPEEIKEAAAPKPAEEQKEI
binding [3]: binds

B3: GRF4, Split-LUC fusion (protein, UniProt P46077 1-267)
chain: MAAPPASSSAREEFVYLAKLAEQAERYEEMVEFMEKVAEAVDKDELTVEERNLLSVAYKNVIGARRASWRIISSIEQKEESRGNDDHVTTIRDYRSKIESELSKICDGILKLLDTRLVPASANGDSKVFYLKMKGDYHRYLAEFKTGQERKDAAEHTLTAYKAAQDIANAELAPTHPIRLGLALNFSVFYYEILNSPDRACNLAKQAFDEAIAELDTLGEESYKDSTLIMQLLRDNLTLWTSDMQDESPEEIKEAAAPKPAEEQKEI
binding [4]: binds

B6: IPK1, BiFC fusion (protein, UniProt Q93YN9 1-451)
chain: MEMILEEKDASDWIYRGEGGANLVLAYAGSSPLFVGKVIRIQKARRNDKAIKNANGVVSVLTSDEQHLWRENNELISSPNKEVLEQRYVKNVIIPLLGPKHVDAGVRVSVSKEFLECVDKKVTKQRPLWRVNAANVDTSHDSALILNDHSLFSQGISSGGDCISVEIKPKCGFLPTSRFIGKENMLKTSVSRFKMHQLLKLEYNEISEESEYDPLDLFSGSKESVLEAIKALYSTPQNNFRVFLNGSLILGGSGESTGRTSPEIGYAFEDALKGFIQSEDGHRTECFLQLVSDAVYGSGVLDRLLEIQKLDKLDIEGAIHSYYDLINQPCPICKEGKPLEAELSLHALPLDESLKIVKEYLIAATAKDCSIMISFQSRNAWDSEPSGDYVSLKPTNQTFDYKVHFIDLSLKPLKRMESYYKLDKKIISFYNRKQKAENTAEQIGNSKPSHS
binding [5]: binds
binding [6]: binds
binding [2]: binds
binding [7]: binds
binding [8]: binds
binding [9]: binds
binding [10]: binds

B7: IPK1, Split-LUC fusion (protein, UniProt Q93YN9 1-451)
chain: MEMILEEKDASDWIYRGEGGANLVLAYAGSSPLFVGKVIRIQKARRNDKAIKNANGVVSVLTSDEQHLWRENNELISSPNKEVLEQRYVKNVIIPLLGPKHVDAGVRVSVSKEFLECVDKKVTKQRPLWRVNAANVDTSHDSALILNDHSLFSQGISSGGDCISVEIKPKCGFLPTSRFIGKENMLKTSVSRFKMHQLLKLEYNEISEESEYDPLDLFSGSKESVLEAIKALYSTPQNNFRVFLNGSLILGGSGESTGRTSPEIGYAFEDALKGFIQSEDGHRTECFLQLVSDAVYGSGVLDRLLEIQKLDKLDIEGAIHSYYDLINQPCPICKEGKPLEAELSLHALPLDESLKIVKEYLIAATAKDCSIMISFQSRNAWDSEPSGDYVSLKPTNQTFDYKVHFIDLSLKPLKRMESYYKLDKKIISFYNRKQKAENTAEQIGNSKPSHS
binding [4]: binds
binding [11]: binds
